Measurements published in the supplement of paper PMC10849652.
The other results are listed elsewhere or left out.

The chains behind the UniProt entries cited, without tags or fusion partners. Where a name states a change or a piece, a line headed by the entry shows the natural chain unless it says otherwise.
UniProt Q68D91: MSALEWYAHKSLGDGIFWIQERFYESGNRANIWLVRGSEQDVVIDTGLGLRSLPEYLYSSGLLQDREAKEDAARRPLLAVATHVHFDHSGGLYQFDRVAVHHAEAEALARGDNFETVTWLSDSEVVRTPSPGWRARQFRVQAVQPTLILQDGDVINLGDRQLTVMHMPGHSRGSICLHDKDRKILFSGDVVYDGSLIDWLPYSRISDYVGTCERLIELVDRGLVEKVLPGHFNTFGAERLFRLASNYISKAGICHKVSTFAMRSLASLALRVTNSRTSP
UniProt Q9GZY8: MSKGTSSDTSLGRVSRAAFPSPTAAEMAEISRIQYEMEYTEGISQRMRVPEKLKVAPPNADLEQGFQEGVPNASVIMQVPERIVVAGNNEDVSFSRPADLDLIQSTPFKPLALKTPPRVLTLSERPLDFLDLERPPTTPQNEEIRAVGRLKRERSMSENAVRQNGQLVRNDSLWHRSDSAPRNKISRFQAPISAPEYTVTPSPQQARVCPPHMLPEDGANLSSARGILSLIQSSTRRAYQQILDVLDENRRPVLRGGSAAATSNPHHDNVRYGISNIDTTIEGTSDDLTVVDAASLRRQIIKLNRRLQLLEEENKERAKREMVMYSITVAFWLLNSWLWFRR
UniProt O95243: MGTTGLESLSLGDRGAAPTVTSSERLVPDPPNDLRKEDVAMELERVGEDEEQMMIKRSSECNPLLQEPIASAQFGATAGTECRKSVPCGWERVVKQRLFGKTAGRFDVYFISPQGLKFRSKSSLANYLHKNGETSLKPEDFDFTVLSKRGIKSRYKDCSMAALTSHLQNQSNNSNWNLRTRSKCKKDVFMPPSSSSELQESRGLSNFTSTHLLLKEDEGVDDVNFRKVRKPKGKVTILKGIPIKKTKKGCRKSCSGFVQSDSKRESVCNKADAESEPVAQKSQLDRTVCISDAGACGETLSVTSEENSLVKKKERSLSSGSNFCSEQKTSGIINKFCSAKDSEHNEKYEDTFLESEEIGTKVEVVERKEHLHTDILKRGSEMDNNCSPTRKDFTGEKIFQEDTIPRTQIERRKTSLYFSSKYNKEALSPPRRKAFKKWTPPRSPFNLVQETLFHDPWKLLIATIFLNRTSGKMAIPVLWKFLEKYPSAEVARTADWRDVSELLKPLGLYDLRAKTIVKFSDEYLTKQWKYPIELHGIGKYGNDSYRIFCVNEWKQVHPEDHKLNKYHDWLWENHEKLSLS
UniProt Q14676: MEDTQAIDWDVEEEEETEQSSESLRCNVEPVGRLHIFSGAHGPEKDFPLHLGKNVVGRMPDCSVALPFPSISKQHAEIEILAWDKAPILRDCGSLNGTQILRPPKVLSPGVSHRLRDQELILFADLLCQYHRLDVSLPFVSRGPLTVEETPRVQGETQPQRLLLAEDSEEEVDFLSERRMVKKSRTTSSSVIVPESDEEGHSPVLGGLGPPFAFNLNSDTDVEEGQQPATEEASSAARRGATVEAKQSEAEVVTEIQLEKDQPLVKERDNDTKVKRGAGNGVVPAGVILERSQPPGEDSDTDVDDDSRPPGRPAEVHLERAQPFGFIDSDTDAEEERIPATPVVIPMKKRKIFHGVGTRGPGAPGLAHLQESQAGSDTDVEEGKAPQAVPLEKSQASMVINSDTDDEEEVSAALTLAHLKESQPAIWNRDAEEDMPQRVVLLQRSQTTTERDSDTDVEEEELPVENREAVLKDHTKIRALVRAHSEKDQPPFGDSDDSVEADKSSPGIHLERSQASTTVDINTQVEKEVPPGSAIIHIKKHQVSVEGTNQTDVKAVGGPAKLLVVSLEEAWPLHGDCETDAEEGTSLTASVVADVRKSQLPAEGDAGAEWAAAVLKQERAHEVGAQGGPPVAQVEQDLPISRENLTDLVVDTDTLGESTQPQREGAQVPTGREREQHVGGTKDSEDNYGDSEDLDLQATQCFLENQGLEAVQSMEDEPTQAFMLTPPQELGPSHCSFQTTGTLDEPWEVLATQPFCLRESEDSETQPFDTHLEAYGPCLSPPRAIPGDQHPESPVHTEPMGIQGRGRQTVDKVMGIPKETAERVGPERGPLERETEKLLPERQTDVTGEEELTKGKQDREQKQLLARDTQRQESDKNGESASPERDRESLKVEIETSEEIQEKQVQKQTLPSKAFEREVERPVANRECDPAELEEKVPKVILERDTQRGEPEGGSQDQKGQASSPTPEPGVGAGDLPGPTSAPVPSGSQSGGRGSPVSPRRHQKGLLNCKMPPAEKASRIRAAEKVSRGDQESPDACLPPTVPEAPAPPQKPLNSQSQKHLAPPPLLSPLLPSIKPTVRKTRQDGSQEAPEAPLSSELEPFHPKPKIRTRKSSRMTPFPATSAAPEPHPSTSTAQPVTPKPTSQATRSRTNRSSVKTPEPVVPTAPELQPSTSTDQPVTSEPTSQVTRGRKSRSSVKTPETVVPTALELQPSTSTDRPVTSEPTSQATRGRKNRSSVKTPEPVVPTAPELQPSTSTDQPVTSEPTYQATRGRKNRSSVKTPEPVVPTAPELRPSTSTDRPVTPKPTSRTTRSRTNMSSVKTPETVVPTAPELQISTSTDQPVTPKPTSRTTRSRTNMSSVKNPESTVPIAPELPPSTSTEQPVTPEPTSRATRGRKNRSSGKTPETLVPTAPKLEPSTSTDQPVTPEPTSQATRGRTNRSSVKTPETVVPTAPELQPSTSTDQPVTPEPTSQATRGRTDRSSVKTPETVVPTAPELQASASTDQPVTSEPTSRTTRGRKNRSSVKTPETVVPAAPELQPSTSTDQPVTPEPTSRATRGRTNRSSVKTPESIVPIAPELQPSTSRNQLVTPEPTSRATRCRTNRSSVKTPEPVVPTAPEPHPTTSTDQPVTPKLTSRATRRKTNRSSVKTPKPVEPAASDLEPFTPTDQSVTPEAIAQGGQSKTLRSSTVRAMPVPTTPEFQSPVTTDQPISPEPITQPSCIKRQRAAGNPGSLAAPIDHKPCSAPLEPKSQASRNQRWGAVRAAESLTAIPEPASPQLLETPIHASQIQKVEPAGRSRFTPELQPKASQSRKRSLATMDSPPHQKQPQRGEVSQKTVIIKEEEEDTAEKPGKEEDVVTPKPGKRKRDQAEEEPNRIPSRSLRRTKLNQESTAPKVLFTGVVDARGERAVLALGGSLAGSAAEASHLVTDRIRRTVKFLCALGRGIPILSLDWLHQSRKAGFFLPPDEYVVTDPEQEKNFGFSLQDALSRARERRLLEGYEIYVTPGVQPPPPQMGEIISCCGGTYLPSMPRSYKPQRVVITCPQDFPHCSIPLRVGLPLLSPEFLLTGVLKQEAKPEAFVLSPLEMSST
UniProt Q9ULC4: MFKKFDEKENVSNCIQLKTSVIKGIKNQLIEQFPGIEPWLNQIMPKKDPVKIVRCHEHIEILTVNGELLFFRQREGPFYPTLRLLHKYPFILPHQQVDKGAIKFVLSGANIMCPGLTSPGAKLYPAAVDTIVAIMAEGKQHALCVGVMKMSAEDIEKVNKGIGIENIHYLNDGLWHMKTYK
UniProt P40926: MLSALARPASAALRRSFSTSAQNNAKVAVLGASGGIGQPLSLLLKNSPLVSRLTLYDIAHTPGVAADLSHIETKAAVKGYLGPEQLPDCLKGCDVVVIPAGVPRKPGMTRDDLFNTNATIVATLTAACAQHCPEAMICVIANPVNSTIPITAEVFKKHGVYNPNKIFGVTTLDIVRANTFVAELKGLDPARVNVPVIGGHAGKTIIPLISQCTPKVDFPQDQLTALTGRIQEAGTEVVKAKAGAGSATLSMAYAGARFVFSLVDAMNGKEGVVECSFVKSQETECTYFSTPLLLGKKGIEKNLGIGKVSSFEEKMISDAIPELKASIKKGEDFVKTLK
UniProt Q6UB28: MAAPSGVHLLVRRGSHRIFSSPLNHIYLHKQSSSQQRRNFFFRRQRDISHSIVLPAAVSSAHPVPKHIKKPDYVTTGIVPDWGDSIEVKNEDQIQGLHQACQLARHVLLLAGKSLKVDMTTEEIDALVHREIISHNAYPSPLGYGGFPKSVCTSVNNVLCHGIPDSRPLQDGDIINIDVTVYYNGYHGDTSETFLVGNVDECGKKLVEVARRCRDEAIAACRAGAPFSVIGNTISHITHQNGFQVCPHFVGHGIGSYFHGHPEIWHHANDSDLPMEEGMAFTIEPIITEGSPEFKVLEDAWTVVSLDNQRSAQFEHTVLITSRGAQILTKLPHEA
UniProt Q16626: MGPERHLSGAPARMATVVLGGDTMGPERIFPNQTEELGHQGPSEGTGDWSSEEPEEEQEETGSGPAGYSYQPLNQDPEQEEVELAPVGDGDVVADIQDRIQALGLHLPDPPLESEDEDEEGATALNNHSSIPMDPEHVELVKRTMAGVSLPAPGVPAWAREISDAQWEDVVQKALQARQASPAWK
UniProt Q9NWA0: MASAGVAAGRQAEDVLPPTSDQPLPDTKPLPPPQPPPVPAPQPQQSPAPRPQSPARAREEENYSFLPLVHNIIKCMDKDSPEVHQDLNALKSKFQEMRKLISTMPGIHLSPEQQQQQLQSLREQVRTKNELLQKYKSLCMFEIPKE
UniProt O00255, whole entry, looked up: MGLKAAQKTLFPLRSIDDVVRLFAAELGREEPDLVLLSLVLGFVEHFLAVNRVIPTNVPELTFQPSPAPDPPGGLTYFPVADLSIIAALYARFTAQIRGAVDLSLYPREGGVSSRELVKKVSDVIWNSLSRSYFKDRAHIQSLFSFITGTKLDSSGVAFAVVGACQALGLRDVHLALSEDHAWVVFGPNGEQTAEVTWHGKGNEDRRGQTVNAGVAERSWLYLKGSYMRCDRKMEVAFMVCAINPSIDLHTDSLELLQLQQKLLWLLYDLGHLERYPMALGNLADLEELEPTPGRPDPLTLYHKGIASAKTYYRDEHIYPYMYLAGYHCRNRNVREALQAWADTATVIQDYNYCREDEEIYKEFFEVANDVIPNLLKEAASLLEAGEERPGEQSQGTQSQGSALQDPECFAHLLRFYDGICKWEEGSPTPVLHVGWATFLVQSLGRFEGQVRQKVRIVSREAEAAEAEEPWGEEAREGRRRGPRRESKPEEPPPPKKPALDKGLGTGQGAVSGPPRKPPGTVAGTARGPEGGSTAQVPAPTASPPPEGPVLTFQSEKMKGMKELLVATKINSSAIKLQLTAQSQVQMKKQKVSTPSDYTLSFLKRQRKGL
UniProt O95983: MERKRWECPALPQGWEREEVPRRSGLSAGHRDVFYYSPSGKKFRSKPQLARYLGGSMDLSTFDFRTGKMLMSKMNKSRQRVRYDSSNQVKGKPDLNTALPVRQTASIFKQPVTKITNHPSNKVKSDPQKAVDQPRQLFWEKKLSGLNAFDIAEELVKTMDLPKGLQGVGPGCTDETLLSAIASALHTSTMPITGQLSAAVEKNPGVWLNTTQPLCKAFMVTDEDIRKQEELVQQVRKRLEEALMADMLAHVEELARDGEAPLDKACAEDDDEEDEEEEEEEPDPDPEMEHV
UniProt P40925: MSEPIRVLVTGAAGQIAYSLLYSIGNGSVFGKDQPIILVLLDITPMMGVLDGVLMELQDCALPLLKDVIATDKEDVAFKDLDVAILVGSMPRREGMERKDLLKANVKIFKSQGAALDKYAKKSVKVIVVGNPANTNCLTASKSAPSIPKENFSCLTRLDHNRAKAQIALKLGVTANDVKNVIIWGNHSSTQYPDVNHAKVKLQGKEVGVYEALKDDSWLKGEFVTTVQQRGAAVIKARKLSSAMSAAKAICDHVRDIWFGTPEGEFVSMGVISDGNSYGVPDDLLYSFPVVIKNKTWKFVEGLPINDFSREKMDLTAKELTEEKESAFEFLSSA
UniProt P43121, whole entry, looked up: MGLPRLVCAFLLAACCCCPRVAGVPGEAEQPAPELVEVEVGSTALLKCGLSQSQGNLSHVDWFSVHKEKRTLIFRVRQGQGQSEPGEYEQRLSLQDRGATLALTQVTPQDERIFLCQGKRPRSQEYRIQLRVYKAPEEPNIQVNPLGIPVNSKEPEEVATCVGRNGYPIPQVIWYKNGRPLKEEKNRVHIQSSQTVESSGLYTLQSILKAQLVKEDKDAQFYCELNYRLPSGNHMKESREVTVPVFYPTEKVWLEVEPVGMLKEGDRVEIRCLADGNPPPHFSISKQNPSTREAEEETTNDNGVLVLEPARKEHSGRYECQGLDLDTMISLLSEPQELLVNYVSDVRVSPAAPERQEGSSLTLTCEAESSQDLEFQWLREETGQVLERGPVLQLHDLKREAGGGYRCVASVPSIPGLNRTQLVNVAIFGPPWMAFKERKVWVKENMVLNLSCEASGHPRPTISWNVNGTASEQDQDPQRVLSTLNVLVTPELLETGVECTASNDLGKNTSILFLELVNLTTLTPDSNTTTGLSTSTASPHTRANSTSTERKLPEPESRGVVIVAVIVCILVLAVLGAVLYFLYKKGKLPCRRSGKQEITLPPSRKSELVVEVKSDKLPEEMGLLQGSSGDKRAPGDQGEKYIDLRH
UniProt Q86V88: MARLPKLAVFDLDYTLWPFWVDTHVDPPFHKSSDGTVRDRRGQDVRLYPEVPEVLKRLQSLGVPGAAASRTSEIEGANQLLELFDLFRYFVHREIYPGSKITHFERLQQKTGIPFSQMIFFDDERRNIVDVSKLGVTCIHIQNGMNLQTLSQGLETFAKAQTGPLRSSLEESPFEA

Compound: Cc1nc(Nc2ncc(C(=O)Nc3c(C)cccc3Cl)s2)cc(N2CCN(CCO)CC2)n1 [dasatinib]
Experiment: log2 fold change, soluble protein after heating vs DMSO (PISA); higher = thermal stabilisation; K562 lysate, 10 uM; active = over 0.2 and 3.5 SD of the protein, either way, in both replicates (recomputed)
Outline: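 Soluble protein was defined as the supernatant remaining after 21,000xg for 90 min, following pooling of heated aliquots and adjustment to 0.5% NP-40 at 4°C. Before that, crude K562 extract at 1 mg/mL protein in PBS pH 7.4 with 1 mM MgCl2 was treated with 10 μM compound for 30 min and heated for 3 min across 48°C-58°C. Quantification used TMTpro 16plex LC-MS/MS with channel sums equalised, and values are log-two fold changes in thermal stability relative to solvent controls from duplicates.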

log2 fold change, inactive:
MCM3 isoform 2 (UniProt P25205) 0.032
MBLAC2 (UniProt Q68D91) -0.003
MFF isoform 2 (UniProt Q9GZY8) -0.005
MED15 (UniProt Q96RN5) 0
MBD4 (UniProt O95243) -0.058
MBOAT7 (UniProt Q96N66) -0.03
MEF2C isoform 2 (UniProt Q06413) 0.062
MED20 (UniProt Q9H944) 0.035
MDC1 (UniProt Q14676) -0.023
MCTS1 isoform 3 (UniProt Q9ULC4) 0.016
MDH2 (UniProt P40926) 0.032
MDN1 (UniProt Q9NU22) -0.07
METAP1D (UniProt Q6UB28) -0.016
MEF2C isoform 5 (UniProt Q06413) 0.016
METTL14 (UniProt Q9HCE5) 0.049
MED24 (UniProt O75448) -0.027
MCCC1 (UniProt Q96RQ3) -0.103
MFSD4B (UniProt Q5TF39) -0.077
MEA1 (UniProt Q16626) -0.028
MED9 (UniProt Q9NWA0) 0.039
MBIP (UniProt Q9NS73) -0.029
MED12 isoform 2 (UniProt Q93074) -0.024
MFSD1 isoform 6 (UniProt Q9H3U5) -0.086
MEN1 (UniProt O00255) -0.144
METTL18 (UniProt O95568) 0.212
MFN2 (UniProt O95140) -0.055
MEPCE (UniProt Q7L2J0) 0.021
MCAT (UniProt Q8IVS2) 0.056
MBD3 (UniProt O95983) -0.026
MDH1 isoform 3 (UniProt P40925) 0.01
MCAM (UniProt P43121) 0.023
MATR3 (UniProt P43243) -0.046
MDP1 (UniProt Q86V88) 0.029
MEX3D isoform 3 (UniProt Q86XN8) 0.15
MCU (UniProt Q8NE86) -0.065
METTL3 (UniProt Q86U44) 0.001
MCUR1 (UniProt Q96AQ8) -0.021
MED28 (UniProt Q9H204) -0.004
METAP1 (UniProt P53582) -0.054

Retrieved one by one from the entries so far (two):
log2 fold change, inactive:
MED24 (UniProt O75448) -0.027
MCTS1 isoform 3 (UniProt Q9ULC4) 0.016
